Data published in EP4640709A1.
Changes are numbered by the printed parent chain. Results are given in words; binding and its absence hold for the method and conditions named. Some entries that bind do so weakly or less than the wild type. One block for each binder: values may come before it.

Tests used:
[1] = molecular target: T1, cynomolgus monkey CX3CR1 (cynomolgus monkey); assay: flow cytometry, CX3CR1-expressing Ba/F3 cells, 200 nM
T1 sequence: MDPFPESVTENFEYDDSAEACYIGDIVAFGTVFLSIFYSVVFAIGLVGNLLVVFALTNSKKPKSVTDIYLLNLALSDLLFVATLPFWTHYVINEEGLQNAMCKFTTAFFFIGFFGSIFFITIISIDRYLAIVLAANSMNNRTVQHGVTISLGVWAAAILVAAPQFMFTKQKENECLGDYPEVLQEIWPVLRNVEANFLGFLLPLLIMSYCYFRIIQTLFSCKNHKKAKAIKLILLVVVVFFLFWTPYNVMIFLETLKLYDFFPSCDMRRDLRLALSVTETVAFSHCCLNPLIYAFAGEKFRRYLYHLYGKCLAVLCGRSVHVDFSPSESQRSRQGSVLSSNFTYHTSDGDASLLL

[2] = molecular target: T1, cynomolgus monkey CX3CR1 (cynomolgus monkey); assay: flow cytometry, CX3CR1-expressing Ba/F3 cells, 200 nM, grade vs positive antibody (+++ >70%, ++ 40-70%, + 10-40%, - <10%)
[3] = molecular target: T1, cynomolgus monkey CX3CR1 (cynomolgus monkey); assay: flow cytometry, CX3CR1-expressing Ba/F3 cells, relative to Synagis

binding [1]: binds
binding [2]: binds
B1: m1F8-1 antibody (antibody, V domains shown)
VH: QVQLQQSGAELARPGASVKLSCKASGFTFTNYWMQWIKQRPGQGLEWIGAIYPGSGESRYTRKFKGKATLTADKSSSTAYMQLNSLASEDSAVYYCARWAGYSRNAAYWGQGTLVTVSA
VL: DVLMTQTPLSLPVSLGDQASISCRSSQSIVHSSGNTYLEWYLQKPGQSPKLLIYKVSNRFSGVPDRFSGSGSGTDFTLKISRVEAEDLGVYYCFQGSHIPPTFGGGTKLEIK

binding [1]: binds
binding [2]: binds
B2: m1F8-2 antibody (antibody, V domains shown)
VH: B1 VH
VL: B1 VL with S26R

binding [3]: binds
B3: h1F8-2-2 antibody (antibody, IgG1, V domains shown)
VH: QVQLVQSGAEVKKPGSSVKVSCKASGFTFTNYWMQWIRQAPGQGLEWIGAIYPGSGESRYTRKFKGKATITADKSTSTAYMELSSLRSEDTAVYYCARWAGYSRNAAYWGQGTLVTVSS
VL: B1 VL with V2I, L3V, S14T, L15P, D17E, Q18P, S26R, K50Q, L88V, L109V
